In this assay the target is ΔLSBD641 (human Hsp70 residues 394-641) (human) (UniProt P0DMV8). Briefly: other fluorescence titration; fluorescence competition assay: 50 µM ΔLSBD641 and 2 µM dansylated NR peptide with 0, 50 or 200 µM non-dansylated NR peptide; Tris 50 mM, pH 7.4, 150 mM KCl, 5 mM MgCl2; 1 h at room temperature; dansyl emission after excitation at 330 nm; both purified.

Amino acid sequences for entries named in this document (tags omitted). A change or cut given only in a name is not applied to a line headed by its entry. Residues count along the entry.
UniProt P0DMV8, residues 394-641: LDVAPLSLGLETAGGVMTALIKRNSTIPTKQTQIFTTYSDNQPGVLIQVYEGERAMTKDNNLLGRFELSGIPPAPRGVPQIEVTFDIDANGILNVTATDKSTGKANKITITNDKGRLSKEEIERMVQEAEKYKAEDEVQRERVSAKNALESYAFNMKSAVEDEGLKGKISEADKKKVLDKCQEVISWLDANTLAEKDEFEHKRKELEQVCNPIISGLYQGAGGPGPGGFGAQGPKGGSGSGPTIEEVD

Results are given in words; binding and its absence hold for the method and conditions named. Some results given as binding are weak or reduced against the parent protein; the word gives no strength.

B1: dansyl-NR peptide (NRLLLTG, N-terminally labelled with dansyl) (peptide)
peptide: NRLLLTG
modifications: dansyl on the N-terminus
Consider B1, for which the binding entry is “binds”.

B2: NR peptide (NRLLLTG), non-dansylated (peptide)
peptide: NRLLLTG
Regarding B2, the binding result is listed as “binds”.
